Data: PubChem BioAssay AID248 (DTP/NCI, 2004)
The list is a part of this screen's results and no random one: it is rich in T/C values a quarter to a half above the control, in often repeated tests (any T/C) and in doses without a T/C. Further doses and runs are listed elsewhere. T/C is the treated group as % of the vehicle group. Some doses have a count of surviving animals in place of a T/C: the source files T/C as zero there, which appears to mark a toxic dose or a test without result, not a measured value. Some survivor counts are full or nearly so, which does not show that the dose was tolerated: the source hardly ever lists a survival T/C far under the control, and the zero likely stands for such cases as well. Counts of survivors are from the toxicity check (mostly the fifth day) where no day follows; animals may have died later. Schedules are NCI's codes, read here as Q, the interval in days (D) or hours (H), X, the number of doses. Where survival is the endpoint, this PubChem deposit counts one and a half times the control or more as active, and values a quarter to a half above the control carry no call in these data; other NCI protocols may use other cut-offs. Some T/C values carry the count of animals alive at the toxicity check (mostly the fifth day); without a count, all were alive then. Some entries were tested several times; their values stand side by side, smallest first.

System: L1210 leukemia ip in BDF1 mice, survival T/C
Experiment: NCI In Vivo Anticancer Drug Screen. Data for tumor model L1210 Leukemia (intraperitoneal) in B6D2F1 (BDF1) mice
Settings: higher T/C = longer survival
[1] = T/C endpoint: mean survival time, dose: 200.0 mg/kg/injection, schedule: Q01DX001 (ip), vehicle: saline
[2] = T/C endpoint: mean survival time, dose: 100.0 mg/kg/injection, schedule: Q04DX003 (ip), vehicle: saline with Tween-80
[3] = T/C endpoint: mean survival time, dose: 400.0 mg/kg/injection, schedule: Q04DX003 (ip), vehicle: saline with Tween-80
[4] = T/C endpoint: mean survival time, dose: 100.0 mg/kg/injection, schedule: Q04DX003 (ip), vehicle: saline
[5] = T/C endpoint: mean survival time, dose: 200.0 mg/kg/injection, schedule: Q04DX003 (ip), vehicle: saline
[6] = T/C endpoint: mean survival time, dose: 400.0 mg/kg/injection, schedule: Q04DX003 (ip), vehicle: saline

Q: With `N=C(N[N+](=O)[O-])N(CCC(=O)O)N=O` as the compound, how does the T/C (T/C endpoint: mean survival time, dose: 65.0 mg/kg/injection, schedule: Q01DX015 (ip), vehicle: saline) read?
A: 125 % of control

Q: And the T/C (T/C endpoint: mean survival time, dose: 100.0 mg/kg/injection, schedule: Q01DX001 (ip), vehicle: saline)?
A: 130 % of control

Q: And the T/C (T/C endpoint: mean survival time, dose: 108.0 mg/kg/injection, schedule: Q01DX015 (ip), vehicle: saline)?
A: 127 % of control

Q: What about the T/C (T/C endpoint: mean survival time, dose: 118.7 mg/kg/injection, schedule: Q01DX015 (ip), vehicle: saline) of the same compound?
A: 125 and 126 % of control [5 of 6 alive]

Q: And the T/C (T/C endpoint: mean survival time, dose: 180.0 mg/kg/injection, schedule: Q01DX015 (ip), vehicle: saline)?
A: 130 % of control

Q: What about the T/C [1] of the same compound?
A: 127 % of control

Q: And the survivor count [1]?
A: 6 of 6

Q: What about the T/C (T/C endpoint: mean survival time, dose: 267.0 mg/kg/injection, schedule: Q01DX015 (ip), vehicle: saline) of the same compound?
A: 125 % of control

Q: And the T/C (T/C endpoint: mean survival time, dose: 300.0 mg/kg/injection, schedule: Q01DX015 (ip), vehicle: saline)?
A: 134 % of control [5 of 6 alive]

Q: And the T/C (T/C endpoint: mean survival time, dose: 400.0 mg/kg/injection, schedule: Q01DX001 (ip), vehicle: saline, evaluated on day 30)?
A: 87 and 127 % of control [3 of 4 alive]

Q: And the T/C (T/C endpoint: mean survival time, dose: 400.0 mg/kg/injection, schedule: Q01DX001 (ip), vehicle: saline, run until all animals had died)?
A: 107 [3 of 4 alive], 127, 130 % of control

Q: What about the T/C (T/C endpoint: mean survival time, dose: 402.0 mg/kg/injection, schedule: Q01DX015 (ip), vehicle: saline) of the same compound?
A: 125 % of control

Q: And the T/C (T/C endpoint: mean survival time, dose: 600.0 mg/kg/injection, schedule: Q01DX001 (ip), vehicle: saline, evaluated on day 30)?
A: 103 and 140 % of control [3 of 4 alive]

Q: And the T/C (T/C endpoint: mean survival time, dose: 600.0 mg/kg/injection, schedule: Q01DX001 (ip), vehicle: saline, run until all animals had died)?
A: 117 [3 of 4 alive] and 158 % of control [4 of 6 alive]

Q: What about the T/C (T/C endpoint: mean survival time, dose: 800.0 mg/kg/injection, schedule: Q01DX001 (ip), vehicle: saline) of the same compound?
A: 133 % of control

Q: For `CO[C@H]1/C=C/O[C@@]2(C)Oc3c(C)c(O)c4c(O)c(c(/C=N/N5C(C)CN(Cc6ccccc6)CC5C)c(O)c4c3C2=O)NC(=O)/C(C)=C\C=C\[C@H](C)[C@H](O)[C@@H](C)[C@@H](O)[C@@H](C)[C@H](OC(C)=O)[C@@H]1C` (some centres undefined), which survivor count (T/C endpoint: median survival time, dose: 200.0 mg/kg/injection, schedule: Q01DX005 (ip), vehicle: other) is on record?
A: 7 of 8

Q: And the T/C (T/C endpoint: median survival time, dose: 800.0 mg/kg/injection, schedule: Q01DX005 (oral), vehicle: Klucel (hydroxypropylcellulose) (HPC))?
A: 128 % of control

Q: `O=C(O)CCC(=O)c1cccc2ccccc12` was tested. Which survivor count (T/C endpoint: mean survival time, dose: 400.0 mg/kg/injection, schedule: Q01DX009 (ip), vehicle: saline) did it give?
A: 3 of 6

Q: Which survivor count (T/C endpoint: mean survival time, dose: 4.0 mg/kg/injection, schedule: Q01DX001 (sc), vehicle: steroid suspending solution) does the source give for `CC(=O)OC1CC2(O)C(CCC3(C)C(c4ccc(=O)oc4)CCC32O)C2(C)C1=CC(O)C1OC12` (centres undefined) here?
A: 1 of 6

Q: For `CN(C)CCc1ccccc1`, which survivor count (T/C endpoint: mean survival time, dose: 400.0 mg/kg/injection, schedule: Q01DX009 (ip), vehicle: saline with Tween-80) is on record?
A: 0 of 6

Q: What does the source list for `CN(C)CCCN=Cc1ccc(O)cc1O.CN(C)CCCN=Cc1ccc(O)cc1O.[Ni+2]`?
A: survivor count [2]: 2 of 6; survivor count (T/C endpoint: mean survival time, dose: 200.0 mg/kg/injection, schedule: Q04DX003 (ip), vehicle: saline with Tween-80): 1 of 6; survivor count [3]: 0 of 6

Q: For `O=C(O)c1c(O)c2cc([N+](=O)[O-])ccc2oc1=O`, which survivor count (T/C endpoint: mean survival time, dose: 200.0 mg/kg/injection, schedule: Q04DX002 (ip), vehicle: saline with Tween-80) is on record?
A: 1 of 3

Q: What about the survivor count (T/C endpoint: mean survival time, dose: 400.0 mg/kg/injection, schedule: Q04DX002 (ip), vehicle: saline with Tween-80) of the same compound?
A: 0 of 3

Q: How did the survivor count (T/C endpoint: mean survival time, dose: 400.0 mg/kg/injection, schedule: Q01DX009 (ip), vehicle: Klucel (hydroxypropylcellulose) (HPC)) turn out when `O=C(O)CC(SC(c1ccccc1)(c1ccccc1)c1ccccc1)C(=O)O` (centres undefined) was run?
A: 0 of 6

Q: With `Cc1cn[nH]c1-c1ccccc1` as the compound, how does the survivor count (T/C endpoint: mean survival time, dose: 400.0 mg/kg/injection, schedule: Q04DX003 (ip), vehicle: Klucel (hydroxypropylcellulose) (HPC)) read?
A: 6 of 6

Q: Which survivor count [2] does the source give for `O=C(O)c1cccc(-c2ccccc2)c1` here?
A: 6 of 6

Q: And the survivor count [3]?
A: 4 of 6

Q: `Cc1ccc([N+](=O)[O-])o1` was tested. Which survivor count [3] did it give?
A: 4 of 6

Q: `CC1C(C)(C)P(=O)(c2ccccc2)C1(C)C` (centres undefined) was tested. Which survivor count [4] did it give?
A: 3 of 4

Q: And the survivor count [5]?
A: 0 of 4

Q: What about the survivor count [6] of the same compound?
A: 0 of 4

Q: With `Cc1ccc2c(n1)Nc1nc(N)[nH]c(=O)c1S2` as the compound, how does the survivor count (T/C endpoint: mean survival time, dose: 50.0 mg/kg/injection, schedule: Q04DX003 (ip), vehicle: carboxymethylcellulose (CMC)) read?
A: 0 of 6

Q: And the survivor count (T/C endpoint: mean survival time, dose: 100.0 mg/kg/injection, schedule: Q04DX003 (ip), vehicle: carboxymethylcellulose (CMC))?
A: 0 of 6

Q: And the survivor count (T/C endpoint: mean survival time, dose: 200.0 mg/kg/injection, schedule: Q04DX003 (ip), vehicle: carboxymethylcellulose (CMC))?
A: 0 of 6

Q: What about the survivor count (T/C endpoint: mean survival time, dose: 400.0 mg/kg/injection, schedule: Q04DX003 (ip), vehicle: carboxymethylcellulose (CMC)) of the same compound?
A: 0 of 6

Q: How did the T/C (T/C endpoint: mean survival time, dose: 8.0 mg/kg/injection, schedule: Q01DX005 (ip), vehicle: saline) turn out when `CC[C@H]1CN2CCc3cc(OC)c(OC)cc3[C@@H]2C[C@@H]1C[C@H]1NCCc2c1[nH]c1ccc(OC)cc21` was run?
A: 126 % of control

Q: And the T/C (T/C endpoint: mean survival time, dose: 8.0 mg/kg/injection, schedule: Q01DX009 (ip), vehicle: saline)?
A: 125 % of control

Q: And the T/C (T/C endpoint: mean survival time, dose: 16.0 mg/kg/injection, schedule: Q01DX005 (ip), vehicle: saline)?
A: 149 % of control

Q: And the survivor count (T/C endpoint: mean survival time, dose: 32.0 mg/kg/injection, schedule: Q01DX005 (ip), vehicle: saline)?
A: 5 of 10

Q: And the survivor count (T/C endpoint: mean survival time, dose: 32.0 mg/kg/injection, schedule: Q01DX009 (ip), vehicle: saline)?
A: 4 of 10

Q: And the survivor count (T/C endpoint: mean survival time, dose: 64.0 mg/kg/injection, schedule: Q04DX003 (ip), vehicle: saline)?
A: 3 of 10

Q: And the T/C (T/C endpoint: median survival time, dose: 32.0 mg/kg/injection, schedule: Q04DX003 (ip), vehicle: saline + alcohol)?
A: 129 % of control

Q: For `O=C1C2(c3ccccc3)CCC1(c1ccccc1)C(c1ccccc1)=C2c1ccccc1`, which survivor count (T/C endpoint: mean survival time, dose: 200.0 mg/kg/injection, schedule: Q01DX001 (ip), vehicle: saline with Tween-80) is on record?
A: 3 of 3

Q: And the survivor count (T/C endpoint: mean survival time, dose: 400.0 mg/kg/injection, schedule: Q01DX001 (ip), vehicle: saline with Tween-80)?
A: 3 of 3

Q: With `O=C(OCC1CCN2CCCC12)c1ccccc1` (centres undefined) as the compound, how does the survivor count [4] read?
A: 3 of 6

Q: And the survivor count [5]?
A: 1 of 6

Q: What about the survivor count [6] of the same compound?
A: 0 of 6
